Experimental data as given in article doi:10.1101/434571.
Results are given in words; binding and its absence hold for the method and conditions named. Binding seen in cells or lysates may run through a third protein. Some results given as binding are weak or reduced against the parent protein; the word gives no strength. Where a sequence is shown, tags or fusion partners need not be part of it.

Chains of the proteins cited; added tags and fusions are not shown.
UniProt Q3LS21: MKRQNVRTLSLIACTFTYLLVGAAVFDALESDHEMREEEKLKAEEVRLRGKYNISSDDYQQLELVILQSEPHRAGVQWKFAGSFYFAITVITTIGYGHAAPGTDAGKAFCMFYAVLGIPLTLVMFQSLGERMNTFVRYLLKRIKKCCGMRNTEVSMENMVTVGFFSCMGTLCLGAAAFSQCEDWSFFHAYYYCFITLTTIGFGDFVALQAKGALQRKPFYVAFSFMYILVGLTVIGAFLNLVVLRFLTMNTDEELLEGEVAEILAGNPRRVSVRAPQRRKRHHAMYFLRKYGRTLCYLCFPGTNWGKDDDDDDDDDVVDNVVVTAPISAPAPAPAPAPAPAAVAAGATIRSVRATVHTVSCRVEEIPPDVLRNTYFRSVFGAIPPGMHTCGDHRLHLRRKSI

T1: Flag-tagged rat KCC2 (rat) (UniProt Q63633)
T1 sequence: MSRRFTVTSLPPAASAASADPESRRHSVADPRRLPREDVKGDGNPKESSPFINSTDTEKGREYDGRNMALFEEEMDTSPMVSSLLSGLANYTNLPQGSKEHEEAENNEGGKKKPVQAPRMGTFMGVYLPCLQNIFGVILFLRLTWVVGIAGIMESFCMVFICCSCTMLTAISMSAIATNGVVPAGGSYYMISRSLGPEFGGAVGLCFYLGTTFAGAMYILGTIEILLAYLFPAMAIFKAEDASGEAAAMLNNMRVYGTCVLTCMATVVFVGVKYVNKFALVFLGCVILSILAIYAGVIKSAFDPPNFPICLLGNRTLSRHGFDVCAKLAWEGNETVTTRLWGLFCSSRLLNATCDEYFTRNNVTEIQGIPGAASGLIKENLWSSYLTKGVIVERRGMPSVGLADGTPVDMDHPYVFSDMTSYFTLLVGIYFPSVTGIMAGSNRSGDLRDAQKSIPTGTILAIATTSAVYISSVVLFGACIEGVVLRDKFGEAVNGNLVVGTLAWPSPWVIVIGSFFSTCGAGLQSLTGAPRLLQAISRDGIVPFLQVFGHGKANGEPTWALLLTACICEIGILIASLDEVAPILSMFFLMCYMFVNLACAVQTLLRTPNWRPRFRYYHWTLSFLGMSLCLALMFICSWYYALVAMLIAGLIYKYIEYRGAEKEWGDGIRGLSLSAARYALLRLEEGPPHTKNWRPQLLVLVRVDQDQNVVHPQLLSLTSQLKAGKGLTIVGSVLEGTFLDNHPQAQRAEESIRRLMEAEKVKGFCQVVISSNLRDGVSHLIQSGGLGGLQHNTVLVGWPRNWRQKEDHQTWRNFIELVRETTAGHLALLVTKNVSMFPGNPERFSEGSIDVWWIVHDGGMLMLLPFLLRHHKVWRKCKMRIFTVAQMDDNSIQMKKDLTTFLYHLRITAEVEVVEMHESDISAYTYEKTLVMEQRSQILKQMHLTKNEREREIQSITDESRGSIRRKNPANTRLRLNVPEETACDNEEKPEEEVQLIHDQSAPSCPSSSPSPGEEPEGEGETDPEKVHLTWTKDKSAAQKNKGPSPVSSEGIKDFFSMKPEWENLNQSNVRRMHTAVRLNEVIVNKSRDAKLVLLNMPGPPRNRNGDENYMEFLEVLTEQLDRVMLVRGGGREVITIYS

B1: Flag-tagged rat KCC2 (protein, UniProt Q63633 1-1139)
chain: MSRRFTVTSLPPAASAASADPESRRHSVADPRRLPREDVKGDGNPKESSPFINSTDTEKGREYDGRNMALFEEEMDTSPMVSSLLSGLANYTNLPQGSKEHEEAENNEGGKKKPVQAPRMGTFMGVYLPCLQNIFGVILFLRLTWVVGIAGIMESFCMVFICCSCTMLTAISMSAIATNGVVPAGGSYYMISRSLGPEFGGAVGLCFYLGTTFAGAMYILGTIEILLAYLFPAMAIFKAEDASGEAAAMLNNMRVYGTCVLTCMATVVFVGVKYVNKFALVFLGCVILSILAIYAGVIKSAFDPPNFPICLLGNRTLSRHGFDVCAKLAWEGNETVTTRLWGLFCSSRLLNATCDEYFTRNNVTEIQGIPGAASGLIKENLWSSYLTKGVIVERRGMPSVGLADGTPVDMDHPYVFSDMTSYFTLLVGIYFPSVTGIMAGSNRSGDLRDAQKSIPTGTILAIATTSAVYISSVVLFGACIEGVVLRDKFGEAVNGNLVVGTLAWPSPWVIVIGSFFSTCGAGLQSLTGAPRLLQAISRDGIVPFLQVFGHGKANGEPTWALLLTACICEIGILIASLDEVAPILSMFFLMCYMFVNLACAVQTLLRTPNWRPRFRYYHWTLSFLGMSLCLALMFICSWYYALVAMLIAGLIYKYIEYRGAEKEWGDGIRGLSLSAARYALLRLEEGPPHTKNWRPQLLVLVRVDQDQNVVHPQLLSLTSQLKAGKGLTIVGSVLEGTFLDNHPQAQRAEESIRRLMEAEKVKGFCQVVISSNLRDGVSHLIQSGGLGGLQHNTVLVGWPRNWRQKEDHQTWRNFIELVRETTAGHLALLVTKNVSMFPGNPERFSEGSIDVWWIVHDGGMLMLLPFLLRHHKVWRKCKMRIFTVAQMDDNSIQMKKDLTTFLYHLRITAEVEVVEMHESDISAYTYEKTLVMEQRSQILKQMHLTKNEREREIQSITDESRGSIRRKNPANTRLRLNVPEETACDNEEKPEEEVQLIHDQSAPSCPSSSPSPGEEPEGEGETDPEKVHLTWTKDKSAAQKNKGPSPVSSEGIKDFFSMKPEWENLNQSNVRRMHTAVRLNEVIVNKSRDAKLVLLNMPGPPRNRNGDENYMEFLEVLTEQLDRVMLVRGGGREVITIYS

What was measured:
[1] = molecular target: T1, Flag-tagged rat KCC2 (rat); assay: co-IP
[2] = molecular target: HA-tagged mouse Task3 (mouse) (UniProt Q3LS21); assay: co-IP

| Molecule | binding [1] | binding [2] |
| --- | --- | --- |
| HA-tagged mouse Task3 (from UniProt Q3LS21 1-402) | binds |  |
| B1 |  | binds |
